No constants are given. Whether binding was seen depends on the method and setting. Some results given as binding are weak or reduced against the parent protein; the word gives no strength.

In the test the target is IRF3 of G. gallus, endogenous in DF-1 cells (G. gallus (endogenous in DF-1)) (UniProt Q90643). In words: native gel or EMSA. (In general: In EMSA bound probe runs differently from free probe, usually more slowly.)

B1: IRF3 of G. gallus, endogenous in DF-1 cells (protein, UniProt Q90643 1-491)
chain: MAALDSEGDAQKLRFGPWLLNAVSSGLYRGLCWIDPDRRIFRIPWKHNARKDVTSSDVEIFKAWAKASGRYEGNAEDPAKWKTNFRCALRSTHMFMLLEDRSKCNDDPHKVYAVASGVPNDRGSGGPVAGALQQQPQLLLNHHDLALENTPTDSTEGVAAAALTQVDLDLLQSVLQHCNISALGSQPTLWAHTGDALPEDALLLPGQDGCLPGPQFQDWRQLEEPLLLGNQPLTGGGCGQDGAGALPVSEECAIPAPSPAEELLFQSANPAPPPPAGDIGGLPPLLDITIYYRGKMVYQEQVDDSRCVLAYQPLDPAVAEQRLVLFPSPASLPDPRQRRYTEDLLEVAGLRLEQRAGQLLATRLKKCKVFWALSQQLEGGEPPLNLLHRDQETTIFDFRVFCTELRDFRDSRRERSPDFTIFLCFGQCFSSTKPKESKLILVKLVPQFCEYWYEQVQRGGASSLNSGNVSLQLSDSFNLFELIEQYHMQTD
Regarding B1, the binding entry is reported as “binds”.
